Data reported in PubChem BioAssay AID540256 (National Center for Advancing Translational Sciences (NCATS), 2011).
Among all 300,000 compounds or so, about 3,700 (1.2%) were called active. This list was built around the results that the source calls inconclusive (neither active nor inactive); the mix of calls is not that of the screen. Calls come from the whole dose curve; tested in HEK293 cells. Potencies of inconclusive entries are doubtful fits and often do not repeat.

Experiment: qHTS for Inhibitors of binding or entry into cells for Lassa Virus; note: nearly all actives have a fitted effect of over 50% in size
Conditions: Lassa virus pseudotype entry inhibition, cell reporter; series mostly up to 37.9 µM
Potency is the fitted concentration of half-maximal effect.

SMILES	Potency
CCOc1cc(CN2CCN(S(=O)(=O)Cc3ccccc3)CC2)ccc1OC	inconclusive: 11.2 µM [inhibitor, partial curve, poor fit]
CC(C)(C)c1ccc(C(=O)NCCCNC(=O)c2ccco2)cc1	inconclusive: 3.16 µM [inhibitor, single point]
O=C(CSc1nncs1)NNC(=O)c1ccccc1Br	inactive
CC(=O)Nc1ccc(NC(=O)Cn2c(=O)n(-c3ccc(F)cc3)c(=O)c3oc4ccccc4c32)cc1	inconclusive: 15.8 µM [inhibitor, partial curve, poor fit]
O=c1cc(-c2ccccc2)c2ccc(O)c(CN3CCCCC3)c2o1	inconclusive: 4.11 µM [inhibitor, partial curve, poor fit]
COCCn1c(-c2cc(OC)c(OC)c(OC)c2)nc2oc3ccccc3c(=O)c2c1=O	active: 5.8 µM
CCCCCn1c(=O)[nH]c2cc(C(=O)NCCN(C)CCCC)ccc2c1=O	inconclusive: 35.5 µM [inhibitor, single point]
COc1ccccc1N1CCN(CC(O)COc2ccc3c(c2)CCC3)CC1 (centres undefined)	inconclusive: 11.2 µM [inhibitor, partial curve, poor fit]
CCOc1ccc(NC(=O)CN2C(=O)CSC(C)C2=O)cc1 (centres undefined)	inactive
CCC(NC(=O)Nc1cc(Cl)ccc1OC)c1c(-n2cccc2)sc2c1CCN(C)C2 (centres undefined)	inactive
CCc1ccc(-n2nc3cc(C)c(NC(=O)c4ccccc4C)cc3n2)cc1	inactive
CC1=NN(/C(=N\c2nnc(C)s2)Nc2ccccc2)[C@H](c2ccc(C)cc2)S1	inconclusive: 16.4 µM [inhibitor, single point]
Cc1ccc(S(=O)(=O)c2c(C)cc(C)nc2Oc2cccc(C)c2C)cc1	inconclusive: 35.5 µM [inhibitor, single point]
CCc1cccc(NC(=O)COC(=O)/C=C/c2cccs2)c1	inactive
COc1ccc(C(C(O)C(=O)c2c[nH]c3ccccc23)N2CCN(c3ccccc3)CC2)cc1 (centres undefined)	inconclusive: 10 µM [inhibitor, partial curve, poor fit]
CC1CC(OCC(O)CN2CCOCC2)CC(C)(C)C1 (centres undefined)	inconclusive: 0.146 µM [inhibitor, full curve, poor fit]
O=C(c1ccccc1CCc1ccccc1)N1CCN(c2ccccn2)CC1	inconclusive: 12.6 µM [inhibitor, partial curve, poor fit]
Cc1ccc(-c2cc(C(=O)OCC(=O)c3ccccc3)c3cccc(Cl)c3n2)cc1	inactive
O=C(Nc1sc2c(c1C(=O)O)CCCCC2)c1ccccc1	inconclusive: 6.31 µM [inhibitor, full curve, poor fit]

Rewritten in markdown: part of the list above

| SMILES | Potency |
| --- | --- |
| CC(C)(C)c1ccc(C(=O)NCCCNC(=O)c2ccco2)cc1 | inconclusive: 3.16 µM [inhibitor, single point] |
| O=C(CSc1nncs1)NNC(=O)c1ccccc1Br | inactive |
| CC(=O)Nc1ccc(NC(=O)Cn2c(=O)n(-c3ccc(F)cc3)c(=O)c3oc4ccccc4c32)cc1 | inconclusive: 15.8 µM [inhibitor, partial curve, poor fit] |
| O=c1cc(-c2ccccc2)c2ccc(O)c(CN3CCCCC3)c2o1 | inconclusive: 4.11 µM [inhibitor, partial curve, poor fit] |
